Test system: T1, Apios tuber lectin (ATL)
T1 construct: native protein purified from tubers (Fraction B)
Assay: hemagglutination inhibition, rabbit erythrocytes
Type: biochemical, Apios americana
Conditions: 2-fold serial dilution of sugar; 2% rabbit erythrocytes

Compound | mM
N[C@H]1C(O)O[C@H](CO)[C@H](O)[C@@H]1O (stereo partly drawn) [D-Galactosamine] | 63 mM
OC[C@H]1OC(O)[C@H](O)[C@@H](O)[C@H]1O (stereo partly drawn) [D-Galactose] | 125 mM
N[C@H]1C(O)O[C@H](CO)[C@@H](O)[C@@H]1O (stereo partly drawn) [D-Glucosamine] | 63 mM
OC[C@H]1OC(O)[C@H](O)[C@@H](O)[C@@H]1O (stereo partly drawn) [D-Glucose] | 500 mM
OC[C@H]1OC(O)[C@@H](O)[C@@H](O)[C@@H]1O (stereo partly drawn) [D-Mannose] | 250 mM
OC1OC[C@@H](O)[C@@H](O)[C@H]1O (stereo partly drawn) [D-Ribose] | 125 mM
C[C@@H]1OC(O)[C@@H](O)[C@H](O)[C@@H]1O (stereo partly drawn) [L-Fucose] | 500 mM
CO[C@H]1O[C@H](CO)[C@@H](O)[C@H](O)[C@@H]1O [Me-α-D-mannopyranoside] | 500 mM
CC(=O)N[C@H]1C(O)O[C@H](CO)[C@H](O)[C@@H]1O (stereo partly drawn) [N-Ac-D-galactosamine] | > 1000 mM
CC(=O)N[C@H]1C(O)O[C@H](CO)[C@@H](O)[C@@H]1O (stereo partly drawn) [N-Ac-D-glucosamine] | > 1000 mM

From article PMC6272198, “Isolation and Biochemical Characterization of Apios Tuber Lectin” (Molecules, 2015)
